No constants are given. Whether binding was seen depends on the method and setting. In cells and extracts the contact can be indirect. These calls come from enrichment with a bait or labelling near it, and not all partners need be listed.
Molecular target: Pcl12-GFP (Ustilago maydis) (UniProt A4ZY37)
Experiment: affinity purification with mass spectrometry; GFP-trap beads with crude extracts (HB buffer) of cells expressing the fuz7DD allele and Pcl12-GFP; SDS-PAGE, trypsin digest, LC-MS

The chains behind the UniProt entries cited, without tags or fusion partners. Where a name states a change or a piece, a line headed by the entry shows the natural chain unless it says otherwise.
UniProt Q8NKE9: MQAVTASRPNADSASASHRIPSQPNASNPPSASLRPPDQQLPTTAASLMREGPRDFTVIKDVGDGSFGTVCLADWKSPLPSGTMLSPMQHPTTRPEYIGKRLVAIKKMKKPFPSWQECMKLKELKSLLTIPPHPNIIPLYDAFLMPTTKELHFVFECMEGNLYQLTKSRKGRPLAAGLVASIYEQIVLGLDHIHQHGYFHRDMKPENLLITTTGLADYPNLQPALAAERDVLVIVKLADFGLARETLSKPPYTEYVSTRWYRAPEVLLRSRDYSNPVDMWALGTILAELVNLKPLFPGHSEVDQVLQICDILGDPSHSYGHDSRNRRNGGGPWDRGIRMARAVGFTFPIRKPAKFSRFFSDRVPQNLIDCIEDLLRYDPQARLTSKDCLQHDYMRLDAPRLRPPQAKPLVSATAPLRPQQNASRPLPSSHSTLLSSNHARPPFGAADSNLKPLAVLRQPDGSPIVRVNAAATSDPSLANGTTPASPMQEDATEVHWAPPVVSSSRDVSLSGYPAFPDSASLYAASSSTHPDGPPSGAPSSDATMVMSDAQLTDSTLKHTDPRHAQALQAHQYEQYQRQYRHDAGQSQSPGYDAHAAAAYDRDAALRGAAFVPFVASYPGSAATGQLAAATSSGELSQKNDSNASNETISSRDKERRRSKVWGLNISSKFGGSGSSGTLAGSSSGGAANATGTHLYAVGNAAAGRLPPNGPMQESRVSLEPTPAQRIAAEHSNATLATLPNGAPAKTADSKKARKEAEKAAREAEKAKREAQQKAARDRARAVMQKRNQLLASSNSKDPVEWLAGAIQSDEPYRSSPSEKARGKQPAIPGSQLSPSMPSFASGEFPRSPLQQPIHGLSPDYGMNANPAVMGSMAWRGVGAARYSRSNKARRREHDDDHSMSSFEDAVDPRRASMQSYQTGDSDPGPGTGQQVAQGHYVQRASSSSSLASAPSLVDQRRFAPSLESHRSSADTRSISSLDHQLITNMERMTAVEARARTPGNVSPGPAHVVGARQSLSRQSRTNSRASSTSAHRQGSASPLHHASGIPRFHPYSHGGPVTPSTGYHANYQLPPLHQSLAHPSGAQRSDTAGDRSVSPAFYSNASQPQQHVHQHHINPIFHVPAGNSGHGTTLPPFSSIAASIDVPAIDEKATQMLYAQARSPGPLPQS
UniProt A0A0D1DY50: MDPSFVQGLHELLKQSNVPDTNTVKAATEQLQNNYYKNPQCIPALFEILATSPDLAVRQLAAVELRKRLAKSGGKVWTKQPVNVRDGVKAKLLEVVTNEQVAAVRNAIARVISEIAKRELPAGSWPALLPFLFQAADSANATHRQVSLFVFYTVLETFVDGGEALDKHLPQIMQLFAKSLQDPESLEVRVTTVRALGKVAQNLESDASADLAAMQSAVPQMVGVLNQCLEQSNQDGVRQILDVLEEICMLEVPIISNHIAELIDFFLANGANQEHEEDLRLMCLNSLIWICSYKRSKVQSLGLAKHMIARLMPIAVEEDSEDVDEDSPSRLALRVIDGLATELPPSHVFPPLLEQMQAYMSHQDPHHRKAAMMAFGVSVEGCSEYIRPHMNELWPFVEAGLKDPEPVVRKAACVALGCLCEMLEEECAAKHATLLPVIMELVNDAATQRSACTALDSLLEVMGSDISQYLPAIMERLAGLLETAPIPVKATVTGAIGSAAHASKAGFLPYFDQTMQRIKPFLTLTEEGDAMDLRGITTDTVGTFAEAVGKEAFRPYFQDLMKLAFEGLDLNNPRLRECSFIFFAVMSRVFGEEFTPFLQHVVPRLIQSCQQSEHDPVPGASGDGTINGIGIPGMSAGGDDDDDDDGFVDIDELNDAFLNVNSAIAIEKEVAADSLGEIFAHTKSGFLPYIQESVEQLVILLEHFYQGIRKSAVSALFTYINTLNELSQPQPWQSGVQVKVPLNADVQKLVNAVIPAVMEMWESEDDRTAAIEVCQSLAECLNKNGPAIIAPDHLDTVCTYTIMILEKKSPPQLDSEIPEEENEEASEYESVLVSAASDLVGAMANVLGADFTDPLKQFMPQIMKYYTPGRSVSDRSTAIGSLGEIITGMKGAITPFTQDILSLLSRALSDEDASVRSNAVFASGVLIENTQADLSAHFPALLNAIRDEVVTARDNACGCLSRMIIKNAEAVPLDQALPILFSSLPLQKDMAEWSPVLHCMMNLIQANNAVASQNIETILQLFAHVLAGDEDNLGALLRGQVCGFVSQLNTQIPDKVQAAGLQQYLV

Substance | binding
Crk1 (Cdk-Related Kinase 1) (from UniProt Q8NKE9) (enzyme) | binds
Kap123 (UMAG_15014) (from UniProt A0A0D1DY50) | binds

— paper PMC6887120
